Like-named read-outs stand apart in the source and are kept apart here.

The series deals with esophageal cancer (EC) expressing EGFR and/or cMet. The format is in vivo. An excerpt:
Approximately 30 participants with any expression level of EGFR, cMet, or both proteins are enrolled in each of the Phase 2a cohort. […] Additional enrollment in Phase 2a cohorts may be allowed to achieve this minimal enrollment.
This is an open-label, multicenter, multi-arm Phase 2 interventional study in participants with previously treated advanced or unresectable GC or EC who are 20 years or older (or the legal age of consent in the jurisdiction in which the study is taking place). Japanese participants with gastric/GEJ or EC who express varying degrees of EGFR, cMet, or both as determined by IHC locally or centrally are enrolled in the GC cohort or EC cohort.
The baseline disease assessments are performed as close as possible to the start of treatment, but no more than 28 days prior to the first dose. Subsequent assessments are performed at 6 weeks (+1 week) after initiation of study treatment administration, then every 6 weeks (±1 week) for the first 12 months and then every 12 weeks (±1 week) until objective radiographic disease progression. Timing for each disease assessment is relative to the first dose of study treatment administration, regardless of dose modifications, and continues until disease progression. Any other site at which new disease is suspected is also imaged.
The primary efficacy measure is ORR. Objective response rate is defined as the proportion of participants who achieve either CR or PR, determined by investigator assessment using RECIST Version 1.1. Confirmation of investigator-assessed ORR may be performed through IRC in the Phase 2b.
Disease Control Rate: Disease control rate is defined as the percentage of participants achieving complete or partial response or stable disease for at least 6 weeks as defined by RECIST Version1.1. The DCR and its 95% CI with Clopper-Pearson method are also calculated.
Next, response to treatment was evaluated. The “All Treated” patient population were patients who received at least 1 dose of study treatment.

With amivantamab, the “Posterior probability (ORR >22.5%)” value by setting is: (all treated population, IHC 1+, N=1, beta distribution) 0.601; (all treated population, IHC 2+, N=10, beta distribution) 0.254; (all treated population, IHC 3+, N=17, beta distribution) 0.195; (all treated population, IHC NA, N=2, beta distribution) 0.465; (all treated population, Total, N=30, beta distribution) 0.059; (response evaluable population, IHC 1+, N=1, beta distribution) 0.601. Also, the “Posterior probability (ORR >22.5%)” value (response evaluable population, IHC 2+, N=10, beta distribution) was found to be 0.254; the “Posterior probability (ORR >22.5%)” value (response evaluable population, IHC 3+, N=17, beta distribution) is given as 0.195; the “Posterior probability (ORR >22.5%)” value (response evaluable population, Total, N=28, beta distribution) is listed as 0.082.

These data come from patent publication US20240317866A1, “Use of Anti-EGFR/Anti-Met Antibody to Treat Gastric or Esophageal Cancer” (Janssen Biotech, Inc., priority 2022, published 2024).
